These results are taken from PubChem BioAssay AID445 (National Center for Advancing Translational Sciences (NCATS), 2006).

Structures are written as SMILES. The list shows a part of the results. Further columns of the screen follow, without active or inactive calls. Most of these compounds were active or inconclusive in the main read-out, so they are no random draw. Words in brackets tell the shape of the fitted curve; partial curves, single points and poor fits give uncertain potencies.

The nature of this assay: IkB Signaling. The conditions noted are these: ABC-DLBCL IkBa-CBG/CBR dual luciferase ratio (green luciferase fused to IkBa over red control in OCI-Ly3 lymphoma cells), 4 h. An outline of the steps: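 Curves were fitted separately to fusion (green), unfused (red) and ratio luminescence, then classed by r2, magnitude and activity. Cells: OCI-Ly3, 4 h compound plus doxycycline at 37C; 10 uM MG-132 defined full response.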
[1] abbreviates: measured here: control luc red channel unless noted.

In general, AC50 refers to the concentration at which the activity in the assay is half-maximal. On to `CCOC(=O)N1CCN(C(=O)c2nc3ccccc3s2)CC1`, for which the AC50 under setting [1] was 0.316 µM [falling, full curve].
Same read-out and setting: the result for `CCCCN1C(=O)c2[nH]nc(-c3ccccc3O)c2C1c1ccc(C(C)(C)C)cc1` (centres undefined) reads 15.8 µM [falling, partial curve]; that for `O=C(Nc1cccc(Cl)c1)c1ccc2nc(CCc3ccccc3)oc2c1`, 10 µM [falling, partial curve].
Still for that read-out and setting: as for `Cc1ccc(-c2nc3cc(Cl)ccc3o2)cc1NC(=O)c1cc([N+](=O)[O-])ccc1N1CCOCC1`, the figure is 1 µM [falling, full curve]; as for `CCC(=O)N1CCc2cc(Br)cc(S(=O)(=O)N3CCC(C(=O)Nc4ccccc4CC)CC3)c21`, 25.1 µM [falling, single point]; as for `COc1cccc(C2CC(=O)Nc3cc4c(cc32)OCO4)c1OC(C)C` (centres undefined), 20 µM [falling, partial curve].
Same read-out and setting: the result for `CC(C)Oc1ccc(CNC(=O)C2CCN(c3nc4ccccc4nc3C(F)(F)F)CC2)cc1` reads 25.1 µM [rising, single point]; that for `CCc1nn(CCCC(=O)N2CCN(c3cc(Cl)ccc3C)CC2)c(=O)c2cc3occc3n12`, 15.8 µM [falling, partial curve].
Regarding `CCOc1ccc2nc(NC(=O)C3CCCN(S(=O)(=O)c4c(C)noc4C)C3)sc2c1` (centres undefined), under setting [1], the AC50 is 12.6 µM [falling, partial curve].
Still for that read-out and setting: the result for `CCOC(=O)N1CCC(N2CCN(S(=O)(=O)c3ccc(NC(C)=O)cc3)CC2)CC1` reads 10 nM [rising, full curve] [measured here: IkB-luc green channel].
Turning to `C=CS(=O)(=O)c1ccc(Oc2ccc(S(=O)(=O)C=C)cc2)cc1`, the AC50 (measured here: IkB-luc green channel) is 5.01 µM [falling, full curve, poor fit] and the AC50 (measured here: control luc red channel) is 1.26 µM [falling, full curve].
In the case of `COc1ccc(CC(=O)NC2CC(=O)N(c3cccc(F)c3)C2)cc1OC` (centres undefined), under setting [1], the AC50 is 3.98 µM [falling, partial curve].
Same read-out and setting: as for `Cc1ccc(C2=Nc3ccccc3N(CC(=O)Nc3ccccc3F)C(=O)C2)cc1C`, the figure is 31.6 µM [falling, partial curve]; as for `Cc1c(C(=O)Nc2ccc(F)c(Cl)c2)oc2ccc(S(=O)(=O)N(C)C3CCCCC3)cc12`, 15.8 µM [falling, partial curve]; as for `Cc1oc2ccc(O)c(CN3CCCCC3)c2c1C(=O)Nc1cccc(C(F)(F)F)c1`, 39.8 µM [falling, single point].
Same read-out and setting: as for `O=C(Nc1cccc(Cl)c1)c1cnn2cccnc12`, the figure is 0.316 µM [rising, partial curve].
Still for that read-out and setting: as for `COCc1c(C(=O)OCC(=O)c2c(N)n(CC(C)C)c(=O)n(C)c2=O)oc2ccccc12`, the figure is 31.6 µM [falling, partial curve]; as for `COc1ccccc1-c1nc(SCc2ccccn2)n[nH]1`, 0.000794 µM [falling, full curve].
Consider `Cc1cn2c(=O)cc(COc3ccc(NC(=O)c4ccccc4C)cc3)nc2s1`, for which, under setting [1], the AC50 was 0.158 µM [rising, partial curve].
On the same count and under the same terms, as for `COc1ccc(C)cc1NC(=O)CSc1nnc(COc2ccccc2)n1Cc1ccco1`, the figure is 15.8 µM [falling, partial curve]; as for `CCCOc1ccc(-c2nc(N3CCCCC3)c3ccccc3n2)cc1`, 5.01 µM [rising, full curve].
Consider `Cc1nn(C)c2c1c(C(F)(F)F)cc(=O)n2CC(=O)N1CCCCC1C` (centres undefined), for which the AC50 under setting [1] was 39.8 µM [falling, single point].
Same read-out and setting: the result for `O=C(Nc1ccc(F)cc1F)C1CCN(S(=O)(=O)c2ccc3[nH]c(=O)ccc3c2)CC1` reads 200 nM [rising, full curve] [measured here: IkB-luc green channel]; that for `COc1cc(NC(=O)CCc2nc3cccnc3n2Cc2cccs2)cc(OC)c1OC`, 20 µM [falling, single point].
The same measure, in the same setting: as for `CCc1ccc(OCc2nc(-c3ccc(OC)c(OC)c3)no2)c(Br)c1`, the figure is 39.8 µM [falling, single point]; as for `O=C(CCc1nc2cccnc2n1-c1ccccc1)Nc1ccc(Cl)c(Cl)c1`, 31.6 µM [falling, partial curve]; as for `CN(C)c1ccc(C2C=C(c3ccccc3)Nc3nnnn32)cc1` (centres undefined), 0.316 µM [falling, full curve].
Same read-out and setting: the result for `COc1ccc(CNC(=O)CCNS(=O)(=O)c2cccc3nsnc23)cc1` reads 2 µM [falling, partial curve]; that for `O=C(NCCCN1CCOCC1)c1cc(-c2cccs2)on1`, 10 µM [rising, partial curve].
On to `CCOc1ccccc1CNC(=O)c1ccc(NC(=O)N2CCSc3ncccc32)cc1`, for which the AC50 under setting [1] was 12.6 µM [falling, partial curve].
Still for that read-out and setting: as for `CN(C)c1ccc(N=Cc2ccco2)cc1`, the figure is 3.98 µM [falling, full curve]; as for `COc1ccc(OC)c(CNC(=O)Cn2nc(C)c3nn(-c4ccc(Cl)cc4)c(C)c3c2=O)c1`, 31.6 µM [falling, partial curve, poor fit]; as for `COc1ccc2oc(=O)c(-c3cn4c(n3)sc3cc(OC)ccc34)cc2c1`, 39.8 µM [falling, single point].
Regarding `Clc1ccc(N2CCN(c3ncnc4c3cnn4-c3ccccc3)CC2)cc1Cl`, under setting [1], the AC50 was 25.1 µM [falling, single point].
On the same count and under the same terms, the result for `Cc1ccc(NCc2nnc(SCC(=O)N(Cc3ccccc3)C(C)(C)C)o2)c(C)c1` reads 20 µM [falling, single point]; that for `COc1ccc(NC(=O)c2cc(S(=O)(=O)N3CCCCCC3)cn2C)cc1Cl`, 5.01 µM [falling, full curve].
The same measure, in the same setting: the result for `COc1ccc(N(Cc2cccs2)C(=O)c2ccc(C(C)(C)C)cc2)cc1` reads 15.8 µM [falling, partial curve]; that for `COc1cc2[nH]c(=O)n(Cc3ccc(C(=O)N4CCN(c5cc(Cl)ccc5C)CC4)cc3)c(=O)c2cc1OC`, 10 µM [falling, partial curve].
Same read-out and setting: as for `O=C(NCC(c1ccc2c(c1)OCO2)N1CCOCC1)C(=O)Nc1ccc(F)cc1F` (centres undefined), the figure is 2 µM [falling, full curve]; as for `O=C(Cn1cnc2c(oc3ccccc32)c1=O)Nc1ccc(OC(F)(F)F)cc1`, 2 µM [rising, partial curve]; as for `CCOC(=O)CSc1nc2ccc(NC(C)=O)cc2s1`, 10 µM [falling, partial curve].
Turning to `O=C(Nc1cccc(Cl)c1)N1CCC(CN2CCOCC2)CC1`, the AC50 under setting [1] was 39.8 µM [rising, single point].
Still for that read-out and setting: as for `Cc1cccc(CCNC(=O)c2cnc3c(C)cccn3c2=O)c1`, the figure is 39.8 µM [falling, single point]; as for `CC(C)(C)c1ccc(S(=O)(=O)c2cn(CC(=O)Nc3ccccc3)c3ccccc3c2=O)cc1`, 1 µM [falling, partial curve].
The same measure, in the same setting: as for `Cc1ccc(CNC(=O)c2ccc3c(c2)N(Cc2ccccc2)C(=O)c2ccccc2S3(=O)=O)cc1`, the figure is 10 µM [falling, partial curve]; as for `O=C(CCC1N=C2c3ccccc3N=C(SCc3ccccc3F)N2C1=O)NCCc1ccccc1` (centres undefined), 39.8 µM [falling, single point]; as for `CCn1c(SCc2ccc(F)cc2Cl)nnc1-c1nonc1NC(C)=O`, 15.8 µM [falling, partial curve].
Same read-out and setting: as for `CCOCC(=O)Nc1nc2ccc(OC)cc2s1`, the figure is 15.8 µM [falling, partial curve].
For `Cc1cc2c(cc1C)NC(CC(=O)Nc1cccc(Cl)c1)C(=O)N2` (centres undefined), under setting [1], the AC50 is 15.8 µM [falling, partial curve].
Same read-out and setting: as for `C=CCc1cccc2cc(C(=O)NCCc3c(C)[nH]c4c(C)cccc34)c(=O)oc12`, the figure is 31.6 µM [falling, single point]; as for `CCN(CC)c1ccc(NC(=O)CCc2nc3cccnc3n2Cc2cccs2)c(C)c1`, 0.631 µM [falling, full curve]; as for `O=C(NCC(c1ccc2c(c1)OCO2)N1CCOCC1)C(=O)Nc1ccccc1` (centres undefined), 20 µM [falling, single point].
Turning to `CNc1ccc(-c2nc(-c3ccco3)no2)cc1[N+](=O)[O-]`, under setting [1], the AC50 was 25.1 µM [falling, single point].
The same measure, in the same setting: as for `CCOC(=O)N1CCC(NC(=O)c2cnn(-c3ccc(F)cc3F)c2C2CCN(C(=O)OC(C)(C)C)CC2)CC1`, the figure is 39.8 µM [falling, partial curve, poor fit]; as for `O=C(C1CCCN(S(=O)(=O)c2ccc(Br)s2)C1)N1CCN(c2cccc(Cl)c2)CC1` (centres undefined), 5.01 µM [falling, partial curve].
For `CCOC(=O)CN(C(=O)CSc1nnc(-c2ccc(OC)c(OC)c2)o1)c1ccc(F)cc1`, the AC50 under setting [1] is 39.8 µM [falling, single point].
On the same count and under the same terms, as for `O=C(c1ccc(C23CC4CC(CC(C4)C2)C3)o1)N1CCOCC1`, the figure is 20 µM [falling, single point].
`CCC(C)Sc1oc(-c2ccco2)nc1S(=O)(=O)c1ccc(C)cc1` (centres undefined): the AC50 under setting [1] was 0.501 µM [rising, full curve, poor fit].
Still for that read-out and setting: the result for `COc1cccc(CC(=O)Nc2ccc(-c3nc4ccccc4s3)cc2)c1` reads 2.51 µM [rising, partial curve]; that for `Cc1ccc(CNc2ncnc3c2cnn3-c2ccc(Cl)cc2)cc1`, 3.98 µM [rising, partial curve]; that for `COc1ccccc1C1Nc2c(sc3nc(C)cc(C)c23)C(=O)N1c1ccccc1` (centres undefined), 31.6 µM [falling, single point].
Same read-out and setting: the result for `Cc1ccc(NC(=O)C(C)Sc2nc(-c3ccccc3)c(C#N)c(=O)[nH]2)c(C)c1` (centres undefined) reads 10 µM [falling, partial curve]; that for `O=c1c(N2CCc3ccccc3C2)csc2ccc(Cl)cc12`, 15.8 µM [falling, partial curve].
